{"source": "patent US6048874A", "about": "“Parenteral metolazone formulations” (priority 1999, dated 2000)", "origin": "cited, not measured here", "details": "high pH aqueous solution, Ranade patents; even this concentration usually resulted in precipitation; cited from earlier work", "note": "The name of at least one read-out is uncertain.", "data": [{"smiles": "Cc1ccccc1N1C(=O)c2cc(S(N)(=O)=O)c(Cl)cc2NC1C", "note": "(stereo not shown) [Metolazone, 7-chloro-1,2,3,4-tetrahydro-2-methyl-3-(2-methylphenyl)-4-oxo-6-quinazolinesulfonamide]", "values": [{"measurement": "highest concentration of metolazone achieved without precipitation", "value": 2, "unit": "mg/mL"}]}]}
